Reference: PubChem BioAssay AID330 (DTP/NCI, 2004)
The list is a part of this screen's results and no random one: it gathers tests that were run many times, whatever their T/C, doses with no T/C, and many T/C values between a quarter and a half above the control. Further doses and runs are listed elsewhere. T/C gives the treated animals as a percentage of the vehicle group. Some entries give survivors of the animals treated and no T/C: the source holds a T/C of zero for them, seemingly a mark for toxic or unscored doses. Some survivor counts are full or nearly so, which does not show that the dose was tolerated: survival well below the control is almost never listed, so the zero probably covers shortened survival too. Survivors were counted at the toxicity check, usually on the fifth day, unless a day is given; later deaths do not show. Schedule codes are those of the source, read here as Q, the interval in days (D) or hours (H), X, the number of doses. Some doses were run more than once; the results are listed from low to high. For survival time, this PubChem deposit counts one and a half times the control or more as active, and values a quarter to a half above the control carry no call in these data; other NCI protocols may use other cut-offs. Some T/C values carry the count of animals alive at the toxicity check (mostly the fifth day); where none is given, no animal had died by that day.

Test system: P388 leukemia ip, CD2F1 mice, survival T/C
Assay: NCI In Vivo Anticancer Drug Screen. Data for tumor model P388 Leukemia (intraperitoneal) in CD2F1 (CDF1) mice
Settings: T/C endpoint: median survival time, higher T/C = longer survival
[1] = dose: 25.0 mg/kg/injection, schedule: Q01DX009 (ip), vehicle: saline with Tween-80
[2] = dose: 200.0 mg/kg/injection, schedule: Q01DX005 (ip), vehicle: Klucel (hydroxypropylcellulose) (HPC)
[3] = dose: 240.0 mg/kg/injection, schedule: Q01DX005 (ip), vehicle: saline with Tween-80
[4] = dose: 50.0 mg/kg/injection, schedule: Q01DX009 (ip), vehicle: Klucel (hydroxypropylcellulose) (HPC)
[5] = dose: 100.0 mg/kg/injection, schedule: Q01DX009 (ip), vehicle: Klucel (hydroxypropylcellulose) (HPC)
[6] = dose: 200.0 mg/kg/injection, schedule: Q01DX009 (ip), vehicle: Klucel (hydroxypropylcellulose) (HPC)

`CCOc1c(N=Nc2ccc([N+](=O)[O-])cc2)c(C)nn1C(=S)SC` was tested, and the survivor count (dose: 15.0 mg/kg/injection, schedule: Q01DX005 (ip), vehicle: Klucel (hydroxypropylcellulose) (HPC)) was 6 of 6, the survivor count (dose: 30.0 mg/kg/injection, schedule: Q01DX005 (ip), vehicle: Klucel (hydroxypropylcellulose) (HPC)) was 6 of 6 and the survivor count (dose: 60.0 mg/kg/injection, schedule: Q01DX005 (ip), vehicle: Klucel (hydroxypropylcellulose) (HPC)) was 5 of 6. The survivor count (dose: 120.0 mg/kg/injection, schedule: Q01DX005 (ip), vehicle: Klucel (hydroxypropylcellulose) (HPC)) was 6 of 6.

In the case of `CC(=O)NN`, the survivor count (dose: 100.0 mg/kg/injection, schedule: Q01DX009 (ip), vehicle: saline with Tween-80) is reported as 6 of 6 and the survivor count (dose: 200.0 mg/kg/injection, schedule: Q01DX009 (ip), vehicle: saline with Tween-80) is reported as 1 of 6.

In the case of `NC(=S)N/N=C\c1nccc2ncccc12`, the T/C (dose: 25.0 mg/kg/injection, schedule: Q04DX002 (ip), vehicle: saline with Tween-80) is reported as 125 % of control.

`CCN(CC)CCCC(C)NC(=S)N/N=C(\C)c1ccccn1` (stereo not given) was tested, and the T/C (dose: 100.0 mg/kg/injection, schedule: Q01DX009 (ip), vehicle: saline) was 128 and 133 % of control, the survivor count (dose: 200.0 mg/kg/injection, schedule: Q01DX009 (ip), vehicle: saline) was 2 of 6 and the survivor count (dose: 400.0 mg/kg/injection, schedule: Q01DX009 (ip), vehicle: saline) was 0 of 6.

In the case of `COP(=S)(NC(C)C)Oc1ccc(C)cc1[N+](=O)[O-]` (stereo not given), the survivor count [1] is reported as 6 of 6.

`CC1(C)N=C(N)N=C(N)N1c1cccc(C(=O)O)c1` was tested, and the survivor count [2] was 1 of 6.

For `Nc1nccc2c1ncn2C1OC(CO)C(O)C1O` (stereo not given), the T/C (dose: 18.75 mg/kg/injection, schedule: Q03HX024 (ip), vehicle: saline with Tween-80) was 128 % of control, the survivor count (dose: 50.0 mg/kg/injection, schedule: Q01DX009 (ip), vehicle: saline with Tween-80) was 3 of 6 and 6 of 6 and the survivor count (dose: 75.0 mg/kg/injection, schedule: Q03HX024 (ip), vehicle: saline with Tween-80) was 3 of 6 and 6 of 6. The survivor count (dose: 150.0 mg/kg/injection, schedule: Q03HX024 (ip), vehicle: saline with Tween-80) was 1 of 6 and 3 of 6, the survivor count (dose: 300.0 mg/kg/injection, schedule: Q03HX024 (ip), vehicle: saline with Tween-80) was 0 of 6 and the survivor count (dose: 400.0 mg/kg/injection, schedule: Q01DX009 (ip), vehicle: saline with Tween-80) was 0 of 6 and 5 of 6.

`CCCCCCCCCCCCCCCC(=O)NCC(=O)NC1CC(OC2CC(O)(C(C)=O)Cc3c(O)c4c(c(O)c32)C(=O)c2c(OC)cccc2C4=O)OC(C)C1O` (stereo not given) was tested, and the T/C (dose: 6.0 mg/kg/injection, schedule: Q01DX009 (ip), vehicle: other) was 131 % of control and the T/C (dose: 12.0 mg/kg/injection, schedule: Q01DX009 (ip), vehicle: other) was 135 % of control.

With `CC1(C)NN=C2C(=CC=C3NNC(C)(C)N32)n2cccc21` the survivor count (dose: 200.0 mg/kg/injection, schedule: Q01DX005 (ip), vehicle: saline with Tween-80) was 3 of 6.

`C[n+]1c(-c2cccc(OCCOCCOCCOc3cccc(-c4c5cc(N)ccc5c5ccc(N)cc5[n+]4C)c3)c2)c2cc(N)ccc2c2ccc(N)cc21` was tested, and the survivor count (dose: 1.56 mg/kg/injection, schedule: Q01DX009 (ip), vehicle: water) was 6 of 6, the survivor count (dose: 3.12 mg/kg/injection, schedule: Q01DX009 (ip), vehicle: water) was 5 of 6 and the survivor count (dose: 6.25 mg/kg/injection, schedule: Q01DX009 (ip), vehicle: water) was 0 of 6. For the same molecule, the survivor count (dose: 12.5 mg/kg/injection, schedule: Q01DX009 (ip), vehicle: water) was 0 of 6.

In the case of `CCCCN=Cc1ccccc1`, the survivor count (dose: 400.0 mg/kg/injection, schedule: Q04DX003 (ip), vehicle: saline with Tween-80) is reported as 4 of 6.

In the case of `COc1cccc2c1C(=O)c1c(O)c3c(c(O)c1C2=O)C[C@@](O)(/C(C)=N/NC(=O)c1ccc(O)cc1)C[C@@H]3OC1CC(N)C(O)C(C)O1` (stereo not given in full), the T/C (dose: 1.0 mg/kg/injection, schedule: Q01DX009 (ip), vehicle: water) is reported as 145 % of control, the survivor count (dose: 16.0 mg/kg/injection, schedule: Q01DX009 (ip), vehicle: water) is reported as 6 of 6 and the survivor count (dose: 40.0 mg/kg/injection, schedule: Q01DX001 (ip), vehicle: water) is reported as 5 of 6. The survivor count (dose: 80.0 mg/kg/injection, schedule: Q01DX001 (ip), vehicle: water) was 5 of 6, the survivor count (dose: 160.0 mg/kg/injection, schedule: Q01DX001 (ip), vehicle: water) was 0 of 6 and the survivor count (dose: 320.0 mg/kg/injection, schedule: Q01DX001 (ip), vehicle: water) was 0 of 6.

With `C=CCOc1cc2c(cc1Cc1cc(OC)c(OC)c(OC)c1)OCO2` the survivor count (dose: 240.0 mg/kg/injection, schedule: Q01DX005 (ip), vehicle: saline) was 0 of 6.

For `CCc1cccc(C)c1NC(=O)C(=O)C(C#N)c1ccc(CC#N)cc1` (stereo not given), the survivor count [3] was 3 of 6.

With `O=C1NC(=O)C2C3CCC(O3)C12` (stereo not given) the survivor count (dose: 200.0 mg/kg/injection, schedule: Q01DX005 (ip), vehicle: saline) was 0 of 6 and 2 of 6.

For `C=CC[N+](CCO)(CCO)CCCCCCCCCCCCCCCCCC`, the survivor count [1] was 6 of 6.

`O=c1ccs[nH]1` was tested, and the survivor count (dose: 25.0 mg/kg/injection, schedule: Q01DX009 (ip), vehicle: Klucel (hydroxypropylcellulose) (HPC)) was 2 of 6 and the survivor count [4] was 0 of 6.

`c1ccc(C23CC2COP3(c2ccccc2)(c2ccccc2)c2ccccc2)cc1` (stereo not given) was tested, and the survivor count (dose: 50.0 mg/kg/injection, schedule: Q01DX009 (ip), vehicle: olive oil, sesame oil, peanut oil) was 0 of 6, the survivor count (dose: 100.0 mg/kg/injection, schedule: Q01DX009 (ip), vehicle: olive oil, sesame oil, peanut oil) was 1 of 6 and the survivor count (dose: 200.0 mg/kg/injection, schedule: Q01DX009 (ip), vehicle: olive oil, sesame oil, peanut oil) was 0 of 6.

With `C/C=C/N=NNc1ccc(OC)cc1` the survivor count (dose: 400.0 mg/kg/injection, schedule: Q04DX003 (ip), vehicle: saline + Tween-80 + alcohol) was 4 of 6.

`CSC(=S)SC(SC)S(C)(=O)=O` (stereo not given) was tested, and the survivor count [4] was 0 of 6 and 1 of 6, the survivor count [5] was 0 of 6 and the survivor count [6] was 0 of 6.

With `O=C(O)C(CCCCNC(=S)S)NC(=S)S.[Zn+2]` (stereo not given) the survivor count [2] was 2 of 3.

In the case of `c1ccc(-c2ccc[n+](CC[n+]3cccc(-c4ccccn4)c3)c2)nc1`, the survivor count [3] is reported as 0 of 6.

For `CCOC(=O)c1cc(/C=C/c2cccc(Cl)c2)on1`, the survivor count (dose: 60.0 mg/kg/injection, schedule: Q01DX005 (ip), vehicle: saline with Tween-80) was 6 of 6 and the survivor count (dose: 120.0 mg/kg/injection, schedule: Q01DX005 (ip), vehicle: saline with Tween-80) was 6 of 6.

For `O=C1OC(=O)C2C3OC(C(Br)C3Br)C12` (stereo not given), the survivor count [2] was 2 of 5.

With `C=CCN(CC=C)C(=O)CCN1CC1` the survivor count (dose: 10.0 mg/kg/injection, schedule: Q04DX003 (ip), vehicle: saline) was 5 of 6, the survivor count (dose: 20.0 mg/kg/injection, schedule: Q04DX003 (ip), vehicle: saline) was 1 of 6 and the survivor count (dose: 40.0 mg/kg/injection, schedule: Q04DX003 (ip), vehicle: saline) was 0 of 6.

In the case of `CCOC(=O)C1C(=O)[C@H](C(=O)OC)C2CCCC3CCCC1N32` (stereo not given in full), the survivor count [3] is reported as 5 of 6.

With `CC1(C)N=C(N)N=C(N)N1c1ccc(CCc2ccccc2)c(Cl)c1` the T/C (dose: 6.25 mg/kg/injection, schedule: Q01DX009 (ip), vehicle: saline sonified) was 130 % of control [5 of 6 alive], the T/C (dose: 6.25 mg/kg/injection, schedule: Q01DX009 (ip), vehicle: saline with Tween-80) was 127 % of control and the T/C (dose: 12.5 mg/kg/injection, schedule: Q01DX009 (ip), vehicle: saline sonified) was 125 % of control [5 of 6 alive]. The survivor count (dose: 25.0 mg/kg/injection, schedule: Q01DX009 (ip), vehicle: saline sonified) was 3 of 6.

With `Clc1cncc(N2CCNCC2)n1` the survivor count [5] was 0 of 6 and the survivor count [6] was 0 of 6.
